Reference: patent US10010520B2, “Combined application of isothiocyanate compound and anti-cancer medicine” (JC (WUXI) COMPANY, INC., priority 2013, dated 2018)

Columns and labels:
Assay type in all cases: cell-based
DU145 cells = test: CellTiter-Glo cell viability, drugs alone or in combination, DU145 cells; settings: Homo sapiens, DU-145, 72 h, read-out: (Bs)50, IC50 of drug B when used alone
Experimental: (§1) Cell culture: Androgen-dependent human prostate cancer cells LNCaP, from Shanghai Medicilon Ltd., were placed in a 37° C., 5% CO2 cell incubator, and were cultured in RPMI1640 culture medium with 10% FBS. Androgen-independent human prostate cancer cells DU145, PC-3, from Shanghai Medicilon Ltd., were placed in a 37° C., 5% CO2 cell incubator, and were cultured in F12 culture medium with 10% FBS.
(§2) isothiocyanates or derivatives thereof and DNA-effecting or influencing anticancer drugs, kinase-inhibiting anticancer drugs or hormonal anticancer drugs for endocrine therapy were administered separately or in combination to cancer cells. […] After administration, the cells were cultured in the CO2 incubator for another 72 hrs, and afterwards, cell viability was tested by using CellTiter-Glo® reagent and luminescence detector. And IC50 values of each administration group were calculated.
(§3) CI value was calculated by the following formula: CI=(Am)50/(As)50+(Bm)50/(Bs)50, […]
(§4) After administration, cells were cultured in the CO2 incubator for another 72 hrs, and afterwards, cell viability was tested by using CellTiter-Glo® reagent and luminescence detector. Curves were plotted according to concentrations or logarithm concentrations of drug A vs cell inhibition rate in the corresponding cell well, and IC50, i.e. (Am)50 was calculated. […]

LNCaP cells = test: CellTiter-Glo cell viability, drugs alone or in combination, LNCaP cells; settings: Homo sapiens, 72 h, read-out: (Bs)50, IC50 of drug B when used alone
Experimental: as §1, §2, §3, §4

[1] = system: human leukemia HL-60 cells; test: CellTiter-Glo cell viability, drugs alone or in combination, HL-60 cells; settings: HL-60, 72 h, read-out: (Bs)50, IC50 of drug B when used alone
Experimental: isothiocyanates or derivatives thereof and DNA-effecting or influencing anticancer drugs, kinase-inhibiting anticancer drugs or hormonal anticancer drugs for endocrine therapy were administered separately or in combination to cancer cells. Cells were seeded into 384-well plates, and cultured for 24 hours in a CO2 incubator. Drugs were dissolved in DMSO and diluted to 9 concentration-gradients in 96 well plates, and then added to corresponding cells in 384-well plates, in which the concentrations of DMSO in 384 well plates were less than 1%. Triplicate wells were set for each concentration. After administration, the cells were cultured in the CO2 incubator for another 72 hrs, and afterwards, cell viability was tested by using CellTiter-Glo® reagent and luminescence detector. And IC50 values of each administration group were calculated.
CI value was calculated by the following formula: CI=(Am)50/(As)50+(Bm)50/(Bs)50,
Triplicate wells were set for each co-administration cell well.
as §4

IC50 (DU145 cells) [µM] | IC50 (LNCaP cells) [µM] | IC50 [1] [µM] | SMILES
332 | 124 | – | CNC(=O)c1ccc(N2C(=S)N(c3ccc(C#N)c(C(F)(F)F)c3)C(=O)C2(C)C)cc1F [Enzalutamide, reference compound]
– | – | 22.5 | Cc1ccc(NC(=O)c2ccc(CN3CCN(C)CC3)cc2)cc1Nc1nccc(-c2cccnc2)n1 [imatinib]
